Consider one molecule from patent US20230039219A1, “Improved Cell-Permeable Nuclear Import Inhibitor Synthetic Peptide for Inhibition of Cytokine Storm or Inflammatory Disease and Use Thereof” (priority 2020, published 2023).

Sequences of proteins named here, by UniProt entry; tags and fusion partners are left off.
UniProt P52294: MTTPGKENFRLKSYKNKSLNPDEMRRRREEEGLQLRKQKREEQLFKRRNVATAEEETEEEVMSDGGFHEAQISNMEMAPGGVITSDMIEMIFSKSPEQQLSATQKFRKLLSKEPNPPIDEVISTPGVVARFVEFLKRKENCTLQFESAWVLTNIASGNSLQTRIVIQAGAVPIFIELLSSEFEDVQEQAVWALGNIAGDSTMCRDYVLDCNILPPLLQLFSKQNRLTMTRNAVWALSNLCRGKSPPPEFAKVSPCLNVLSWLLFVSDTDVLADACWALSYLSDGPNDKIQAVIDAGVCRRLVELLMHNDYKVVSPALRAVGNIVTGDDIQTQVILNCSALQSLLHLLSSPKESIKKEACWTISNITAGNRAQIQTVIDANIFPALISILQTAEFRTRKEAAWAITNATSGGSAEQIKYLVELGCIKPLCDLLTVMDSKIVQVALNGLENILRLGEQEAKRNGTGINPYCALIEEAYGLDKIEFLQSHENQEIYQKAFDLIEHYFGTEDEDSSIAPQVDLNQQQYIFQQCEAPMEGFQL

No constants are given. Whether binding was seen depends on the method and setting. Some binding calls cover weakened binding; strength is not graded here.

For test [1], the target named is Importin-a5 (UniProt P52294). Nature of the test: SPR (Biacore T200), importin a5 immobilised on CM5 chip.
For test [2], the target named is Importin-a5 (UniProt P52294). Nature of the test: SPR (Biacore T200), importin a5 immobilised on CM5 chip, iCP-NI injected at 10-100 µM. (Surface plasmon resonance follows binding to a sensor surface in real time, without labels.)

On to IAAVLAAPALVPCVQRKRQKLMPC (NLS part circularized by a disulfide bond between its two flanking cysteines) [improved cell-permeable nuclear import inhibitor (iCP-NI) synthetic peptide, aMTD827-cNLS], for which the binding result in the test with Importin-a5 [1] and with Importin-a5 [2] was “binds” each time.
